Measured values as given in patent US6635431.
No constants are given. Whether binding was seen depends on the method and setting. For part of these data: In cells and extracts the contact can be indirect. Some binding calls cover weakened binding; strength is not graded here.

Chains of the proteins cited; added tags and fusions are not shown. Residues count along the entry.
UniProt P04114, residues 28-4563: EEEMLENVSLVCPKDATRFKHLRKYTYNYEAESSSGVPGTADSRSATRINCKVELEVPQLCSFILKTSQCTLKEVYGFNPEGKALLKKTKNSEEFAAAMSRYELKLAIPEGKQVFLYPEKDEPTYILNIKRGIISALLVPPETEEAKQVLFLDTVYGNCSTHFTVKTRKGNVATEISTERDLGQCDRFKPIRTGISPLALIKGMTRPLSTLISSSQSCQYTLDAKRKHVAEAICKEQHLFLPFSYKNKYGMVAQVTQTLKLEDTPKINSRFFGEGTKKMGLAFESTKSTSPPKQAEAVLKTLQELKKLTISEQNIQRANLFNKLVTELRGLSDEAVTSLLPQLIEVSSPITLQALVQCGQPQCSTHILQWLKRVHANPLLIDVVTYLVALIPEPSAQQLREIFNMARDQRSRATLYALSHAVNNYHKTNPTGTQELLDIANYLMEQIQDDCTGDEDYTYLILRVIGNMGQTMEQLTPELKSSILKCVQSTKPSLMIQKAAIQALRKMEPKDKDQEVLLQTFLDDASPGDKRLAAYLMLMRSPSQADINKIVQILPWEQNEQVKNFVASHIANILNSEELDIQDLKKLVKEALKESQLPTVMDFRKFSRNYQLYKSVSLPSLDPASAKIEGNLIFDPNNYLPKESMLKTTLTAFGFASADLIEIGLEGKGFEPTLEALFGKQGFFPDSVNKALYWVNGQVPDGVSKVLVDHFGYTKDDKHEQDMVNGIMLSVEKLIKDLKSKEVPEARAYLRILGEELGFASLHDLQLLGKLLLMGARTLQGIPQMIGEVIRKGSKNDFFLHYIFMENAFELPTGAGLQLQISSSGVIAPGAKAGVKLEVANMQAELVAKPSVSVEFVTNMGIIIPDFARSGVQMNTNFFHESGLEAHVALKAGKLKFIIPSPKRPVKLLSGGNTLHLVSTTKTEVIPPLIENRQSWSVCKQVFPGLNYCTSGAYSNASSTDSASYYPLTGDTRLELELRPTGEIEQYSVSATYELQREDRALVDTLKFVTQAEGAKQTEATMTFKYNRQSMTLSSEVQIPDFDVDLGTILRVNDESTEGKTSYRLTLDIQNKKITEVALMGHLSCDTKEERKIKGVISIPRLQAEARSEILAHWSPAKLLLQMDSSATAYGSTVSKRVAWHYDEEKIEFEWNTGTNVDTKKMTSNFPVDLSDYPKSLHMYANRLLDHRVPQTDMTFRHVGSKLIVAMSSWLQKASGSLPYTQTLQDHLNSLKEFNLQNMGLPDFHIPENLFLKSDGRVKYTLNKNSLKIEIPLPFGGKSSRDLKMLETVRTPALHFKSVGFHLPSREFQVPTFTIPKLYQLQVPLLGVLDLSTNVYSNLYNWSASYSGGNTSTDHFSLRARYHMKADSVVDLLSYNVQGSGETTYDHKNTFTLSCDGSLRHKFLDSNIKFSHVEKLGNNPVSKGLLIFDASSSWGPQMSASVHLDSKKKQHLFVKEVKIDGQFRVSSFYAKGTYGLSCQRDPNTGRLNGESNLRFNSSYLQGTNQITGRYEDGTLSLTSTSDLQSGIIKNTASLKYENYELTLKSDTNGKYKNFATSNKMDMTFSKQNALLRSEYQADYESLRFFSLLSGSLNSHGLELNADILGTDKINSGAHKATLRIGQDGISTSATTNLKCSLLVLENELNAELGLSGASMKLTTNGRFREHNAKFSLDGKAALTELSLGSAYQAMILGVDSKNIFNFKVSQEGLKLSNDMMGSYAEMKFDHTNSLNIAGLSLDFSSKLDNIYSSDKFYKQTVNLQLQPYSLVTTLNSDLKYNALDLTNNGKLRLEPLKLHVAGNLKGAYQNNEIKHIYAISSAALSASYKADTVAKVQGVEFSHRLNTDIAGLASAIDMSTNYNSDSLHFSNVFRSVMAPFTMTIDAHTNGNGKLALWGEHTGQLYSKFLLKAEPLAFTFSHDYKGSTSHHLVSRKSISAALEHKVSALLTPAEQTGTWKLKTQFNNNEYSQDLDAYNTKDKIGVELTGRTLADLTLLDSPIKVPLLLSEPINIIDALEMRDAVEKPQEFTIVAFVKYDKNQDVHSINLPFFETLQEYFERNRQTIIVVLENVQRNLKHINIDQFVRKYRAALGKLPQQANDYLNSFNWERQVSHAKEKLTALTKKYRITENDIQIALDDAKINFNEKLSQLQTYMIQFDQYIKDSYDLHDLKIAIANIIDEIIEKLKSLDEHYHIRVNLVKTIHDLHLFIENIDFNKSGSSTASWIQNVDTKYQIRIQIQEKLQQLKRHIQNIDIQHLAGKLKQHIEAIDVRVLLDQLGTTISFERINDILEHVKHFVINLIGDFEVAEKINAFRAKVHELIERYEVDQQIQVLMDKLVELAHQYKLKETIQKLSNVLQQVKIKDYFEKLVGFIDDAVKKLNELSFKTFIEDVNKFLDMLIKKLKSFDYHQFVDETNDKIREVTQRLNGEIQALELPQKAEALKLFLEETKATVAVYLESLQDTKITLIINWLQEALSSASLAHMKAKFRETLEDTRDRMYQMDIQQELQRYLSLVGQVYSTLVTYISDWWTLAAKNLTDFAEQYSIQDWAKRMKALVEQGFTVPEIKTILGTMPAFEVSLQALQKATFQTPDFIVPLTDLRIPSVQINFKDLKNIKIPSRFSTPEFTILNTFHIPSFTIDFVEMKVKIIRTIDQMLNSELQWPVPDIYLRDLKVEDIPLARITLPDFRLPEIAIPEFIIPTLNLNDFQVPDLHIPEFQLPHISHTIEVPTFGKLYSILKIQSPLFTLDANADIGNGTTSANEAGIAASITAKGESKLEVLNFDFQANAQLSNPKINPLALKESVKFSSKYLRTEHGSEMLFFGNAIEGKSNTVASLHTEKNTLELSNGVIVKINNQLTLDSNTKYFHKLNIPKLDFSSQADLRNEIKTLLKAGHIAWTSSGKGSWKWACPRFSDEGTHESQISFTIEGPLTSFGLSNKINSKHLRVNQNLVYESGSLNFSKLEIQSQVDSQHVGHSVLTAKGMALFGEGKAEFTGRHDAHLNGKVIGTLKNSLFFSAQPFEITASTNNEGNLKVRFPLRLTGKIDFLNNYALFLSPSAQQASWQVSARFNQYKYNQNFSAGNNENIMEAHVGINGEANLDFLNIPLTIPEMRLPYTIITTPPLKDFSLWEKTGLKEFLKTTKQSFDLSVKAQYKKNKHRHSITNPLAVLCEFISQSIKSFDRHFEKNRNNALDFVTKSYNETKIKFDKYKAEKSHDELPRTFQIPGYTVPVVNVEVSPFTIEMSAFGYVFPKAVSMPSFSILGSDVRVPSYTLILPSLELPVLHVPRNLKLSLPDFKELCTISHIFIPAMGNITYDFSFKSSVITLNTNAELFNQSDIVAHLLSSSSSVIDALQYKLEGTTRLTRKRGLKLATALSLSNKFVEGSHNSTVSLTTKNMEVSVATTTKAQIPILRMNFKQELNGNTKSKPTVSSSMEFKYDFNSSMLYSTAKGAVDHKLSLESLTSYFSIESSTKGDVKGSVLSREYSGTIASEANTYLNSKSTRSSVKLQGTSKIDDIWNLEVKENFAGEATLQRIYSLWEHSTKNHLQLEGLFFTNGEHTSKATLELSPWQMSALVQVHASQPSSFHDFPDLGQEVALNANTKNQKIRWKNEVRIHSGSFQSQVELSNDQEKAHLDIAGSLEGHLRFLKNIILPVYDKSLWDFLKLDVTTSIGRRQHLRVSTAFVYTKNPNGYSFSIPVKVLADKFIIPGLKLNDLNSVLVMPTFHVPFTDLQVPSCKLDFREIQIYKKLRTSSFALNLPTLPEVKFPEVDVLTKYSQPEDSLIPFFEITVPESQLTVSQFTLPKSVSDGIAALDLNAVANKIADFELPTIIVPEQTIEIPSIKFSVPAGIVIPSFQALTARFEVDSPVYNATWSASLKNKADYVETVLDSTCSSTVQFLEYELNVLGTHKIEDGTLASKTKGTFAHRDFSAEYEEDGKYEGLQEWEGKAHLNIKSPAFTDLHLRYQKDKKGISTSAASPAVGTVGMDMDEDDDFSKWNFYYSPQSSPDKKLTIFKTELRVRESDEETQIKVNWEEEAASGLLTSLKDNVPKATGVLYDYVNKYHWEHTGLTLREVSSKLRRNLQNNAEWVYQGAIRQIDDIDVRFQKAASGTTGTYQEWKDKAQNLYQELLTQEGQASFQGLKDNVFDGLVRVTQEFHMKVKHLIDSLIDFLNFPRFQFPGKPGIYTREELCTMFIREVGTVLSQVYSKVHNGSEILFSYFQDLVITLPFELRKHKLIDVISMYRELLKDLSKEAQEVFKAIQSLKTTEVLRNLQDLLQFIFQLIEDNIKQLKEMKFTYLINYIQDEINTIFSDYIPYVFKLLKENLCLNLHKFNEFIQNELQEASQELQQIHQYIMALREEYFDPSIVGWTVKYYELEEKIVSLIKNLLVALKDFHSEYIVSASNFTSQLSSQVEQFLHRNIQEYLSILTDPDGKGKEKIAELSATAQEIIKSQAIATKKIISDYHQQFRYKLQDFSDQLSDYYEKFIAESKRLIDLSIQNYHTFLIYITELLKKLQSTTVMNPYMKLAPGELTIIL

Tests used:
[1] = target: T1, rat LSR receptor (Lipolysis Stimulated Receptor), native multimeric complex of rat liver membranes and rat hepatocytes (rat) (UniProt Q9WU74); test: ligand blotting with oleate
T1 sequence 1: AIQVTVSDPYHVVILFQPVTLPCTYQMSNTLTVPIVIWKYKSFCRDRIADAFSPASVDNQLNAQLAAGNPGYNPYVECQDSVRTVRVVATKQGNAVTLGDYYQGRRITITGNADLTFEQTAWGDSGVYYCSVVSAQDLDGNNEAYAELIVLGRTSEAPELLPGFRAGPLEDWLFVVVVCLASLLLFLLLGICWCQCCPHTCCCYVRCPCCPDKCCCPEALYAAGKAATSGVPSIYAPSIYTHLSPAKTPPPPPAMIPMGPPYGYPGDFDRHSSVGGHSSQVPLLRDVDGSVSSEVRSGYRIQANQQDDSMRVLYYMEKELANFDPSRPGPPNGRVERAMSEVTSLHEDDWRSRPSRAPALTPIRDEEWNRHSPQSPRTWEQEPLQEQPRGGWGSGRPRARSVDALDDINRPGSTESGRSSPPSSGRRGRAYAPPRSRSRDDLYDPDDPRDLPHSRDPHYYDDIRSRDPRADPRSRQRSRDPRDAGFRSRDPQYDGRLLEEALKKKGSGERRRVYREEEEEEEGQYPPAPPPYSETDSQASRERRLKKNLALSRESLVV
T1 sequence 2: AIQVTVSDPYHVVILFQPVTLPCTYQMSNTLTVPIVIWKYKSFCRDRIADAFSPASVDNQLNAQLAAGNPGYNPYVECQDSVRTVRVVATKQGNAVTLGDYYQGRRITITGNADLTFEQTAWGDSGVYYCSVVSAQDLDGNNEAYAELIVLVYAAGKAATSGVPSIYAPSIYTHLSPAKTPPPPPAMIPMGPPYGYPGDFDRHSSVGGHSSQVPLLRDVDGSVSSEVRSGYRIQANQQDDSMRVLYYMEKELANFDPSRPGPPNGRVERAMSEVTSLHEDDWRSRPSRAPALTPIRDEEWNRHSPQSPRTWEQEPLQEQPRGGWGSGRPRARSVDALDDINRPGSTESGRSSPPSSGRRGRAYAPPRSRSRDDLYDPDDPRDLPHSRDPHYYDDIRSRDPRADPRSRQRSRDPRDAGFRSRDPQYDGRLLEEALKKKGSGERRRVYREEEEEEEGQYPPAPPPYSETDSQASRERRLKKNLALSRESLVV

[2] = target: T2, α subunit of rat LSR (product of cDNA LSR-Rn-2097) (rat) (UniProt Q9WU74); test: flotation of 35S-labelled in vitro translated LSR with LDL
T2 sequence: T1 sequence 1

[3] = target: T3, β subunit of rat LSR (product of cDNA LSR-Rn-1893) (rat) (UniProt Q9WU74); test: as above
T3 sequence: T1 sequence 2

[4] = target: T2, α subunit of rat LSR (product of cDNA LSR-Rn-2097) (rat); test: ligand blotting of α and β subunits partially purified with sarkosyl, 125I-LDL with oleate
[5] = target: T3, β subunit of rat LSR (product of cDNA LSR-Rn-1893) (rat); test: as above
[6] = target: T1, rat LSR receptor (Lipolysis Stimulated Receptor), native multimeric complex of rat liver membranes and rat hepatocytes (rat); test: ligand blotting of solubilized rat liver membrane proteins with 40 µg/ml 125I-LDL, with or without 0.8 mM oleate
[7] = target: T4, recombinant rat LSR receptor expressed in CHO-K1 cells co-transfected with the α and β plasmids (rat) (UniProt Q9WU74); test: binding, internalization and degradation of 125I-LDL on transiently transfected CHO-K1 cells with or without 1 mM oleate
T4 sequence 1: T1 sequence 1
T4 sequence 2: T1 sequence 2

[8] = target: T1, rat LSR receptor (Lipolysis Stimulated Receptor), native multimeric complex of rat liver membranes and rat hepatocytes (rat); test: immunoprecipitation of rat hepatocyte lysates with anti-LSR antibodies, reducing conditions
[9] = target: T1, rat LSR receptor (Lipolysis Stimulated Receptor), native multimeric complex of rat liver membranes and rat hepatocytes (rat); test: co-purification on an anti-LSR immunoaffinity resin with NH2-terminal sequencing; inhibition of LSR activity by anti-gC1q-R peptide antibodies

Measured: binding

LDL (low-density lipoprotein, 1.025<d<1.055 g/ml) isolated from plasma of volunteers (from UniProt P04114 28-4563)
not listed: [8] | [9]
binds: all other assays above

B1: γ subunit of LSR, about 35 kDa, identified as gC1q-R (or a structurally similar homologue) from rat liver membranes (protein, UniProt O35796 72-279, looked up)
chain: LHTEGDKAFVEFLTDEIKEEKKIQKHKSLPKMSGDWELEVNGTEAKLLRKVAGEKITVTFNINNSIPPTFDGEEEPSQGQKAEEQEPELTSTPNFVVEVTKTDGKKTLVLDCHYPEDEIGHEDEAESDIFSIKEVSFQTTGDSEWRDTNYTLNTDSLDWALYDHLMDFLADRGVDNTFADELVELSTALEHQEYITFLEDLKSFVKSQ
binds: [8] | [9]
